Assay results as given in patent EP4534088A1, “ARFOLITIXORIN FOR USE IN VITAMIN B6-ENHANCED, 5-FLUOROURACIL-BASED CHEMOTHERAPY OF CARCINOMAS” (priority 2023, dated 2025).
At least one compound was matched to its structure with a doubt left.

Tested on: solid tumors
Experiment: Phase I/IIa study ISO-CC-005: tumour response to arfolitixorin doublet regimens (ARFIRI/ARFOX)
Format: in vivo, human
Conditions: [6R]-MTHF and 5-FU; between 8 and 16 weeks after initiating treatment
Experimental: Arfolitixorin has been in development for a number of years and has been studied in several clinical studies.
The completion of the study was announced in January 2020. In total, 105 patients were included in the study. […] These patients had been treated with the "doublet" regimens comprising 120 mg/m^2 arfolitixorin and 5-fluorouracil (5-FU) with either irinotecan or oxaliplatin (ARFIRI/ARFOX). Out of the 31 patients, 17 were treated with an ARFOX regimen.

For `Nc1nc2c(c(=O)[nH]1)N1CN(c3ccc(C(=O)N[C@@H](CCC(=O)O)C(=O)O)cc3)C[C@H]1CN2` [arfolitixorin, [6R]-5,10-methylenetetrahydrofolate], the “progression of solid tumors” value was “No statistically significant progression”.
